{
  "sequences": {"note": "Sequences of proteins named here, by UniProt entry; tags and fusion partners are left off. A change or cut given only in a name is not applied to a line headed by its entry. Residues count along the entry.", "UniProt P98073": "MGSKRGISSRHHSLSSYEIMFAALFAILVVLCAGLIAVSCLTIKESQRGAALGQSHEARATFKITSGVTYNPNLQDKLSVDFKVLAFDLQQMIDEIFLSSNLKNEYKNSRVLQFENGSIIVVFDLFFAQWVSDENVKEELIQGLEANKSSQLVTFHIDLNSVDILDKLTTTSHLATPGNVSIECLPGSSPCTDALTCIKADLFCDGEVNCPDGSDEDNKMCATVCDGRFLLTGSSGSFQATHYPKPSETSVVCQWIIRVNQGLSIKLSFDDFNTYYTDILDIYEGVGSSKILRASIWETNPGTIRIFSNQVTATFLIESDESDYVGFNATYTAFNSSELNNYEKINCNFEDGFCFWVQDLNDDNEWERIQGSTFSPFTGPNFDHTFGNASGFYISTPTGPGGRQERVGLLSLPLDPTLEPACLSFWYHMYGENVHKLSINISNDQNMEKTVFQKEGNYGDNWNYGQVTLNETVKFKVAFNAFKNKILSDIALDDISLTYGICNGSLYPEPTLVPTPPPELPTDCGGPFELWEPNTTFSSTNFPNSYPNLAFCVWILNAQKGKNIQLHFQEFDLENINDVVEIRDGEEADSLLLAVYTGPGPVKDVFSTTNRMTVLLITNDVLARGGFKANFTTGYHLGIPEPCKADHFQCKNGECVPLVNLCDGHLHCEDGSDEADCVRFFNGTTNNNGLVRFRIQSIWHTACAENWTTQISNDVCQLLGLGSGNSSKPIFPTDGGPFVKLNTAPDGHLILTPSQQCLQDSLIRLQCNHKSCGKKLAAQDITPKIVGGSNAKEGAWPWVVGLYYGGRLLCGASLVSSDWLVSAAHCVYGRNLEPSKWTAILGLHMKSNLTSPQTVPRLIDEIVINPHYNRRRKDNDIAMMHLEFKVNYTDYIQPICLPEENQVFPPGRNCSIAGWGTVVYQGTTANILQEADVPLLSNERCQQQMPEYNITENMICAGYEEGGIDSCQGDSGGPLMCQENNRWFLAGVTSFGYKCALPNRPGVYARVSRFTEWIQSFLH", "UniProt P98074, 52-1034": "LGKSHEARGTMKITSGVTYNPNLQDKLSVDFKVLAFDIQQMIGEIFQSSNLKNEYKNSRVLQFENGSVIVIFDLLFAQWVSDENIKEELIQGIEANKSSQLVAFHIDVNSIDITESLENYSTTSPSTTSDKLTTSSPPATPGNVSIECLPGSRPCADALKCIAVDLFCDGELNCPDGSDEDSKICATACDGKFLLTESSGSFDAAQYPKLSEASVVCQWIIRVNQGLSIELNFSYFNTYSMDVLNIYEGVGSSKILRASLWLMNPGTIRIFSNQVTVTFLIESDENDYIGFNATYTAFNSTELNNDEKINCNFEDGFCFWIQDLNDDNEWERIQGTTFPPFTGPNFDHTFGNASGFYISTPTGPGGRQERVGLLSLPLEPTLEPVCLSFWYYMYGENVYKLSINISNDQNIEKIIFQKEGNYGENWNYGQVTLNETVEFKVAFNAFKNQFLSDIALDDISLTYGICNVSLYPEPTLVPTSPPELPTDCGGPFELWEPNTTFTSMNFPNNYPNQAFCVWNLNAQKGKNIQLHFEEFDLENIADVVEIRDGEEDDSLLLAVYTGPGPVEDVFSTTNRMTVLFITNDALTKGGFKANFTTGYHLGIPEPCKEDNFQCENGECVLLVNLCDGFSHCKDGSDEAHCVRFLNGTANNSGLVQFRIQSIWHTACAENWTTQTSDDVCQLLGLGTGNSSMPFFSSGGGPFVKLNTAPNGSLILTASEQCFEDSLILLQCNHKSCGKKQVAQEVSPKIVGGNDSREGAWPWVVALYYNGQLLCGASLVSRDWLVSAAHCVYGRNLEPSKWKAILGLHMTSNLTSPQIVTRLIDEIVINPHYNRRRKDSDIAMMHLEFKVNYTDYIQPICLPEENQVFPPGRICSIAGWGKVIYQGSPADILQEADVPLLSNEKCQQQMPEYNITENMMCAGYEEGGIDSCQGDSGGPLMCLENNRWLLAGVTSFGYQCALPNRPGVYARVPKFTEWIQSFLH"},
  "source": "patent US4593018A",
  "about": "“Oligopeptide aldehydes useful as specific inhibitors of enterokinase” (National Research Development Corp., priority 1983, dated 1986)",
  "format_in_all_cases": "biochemical",
  "key": {"[1]": {"biological_target": "T1, Human Enterokinase (Homo sapiens, UniProt P98073)", "test": "Inhibition of human enterokinase, α-N-[3H]acetyl trypsinogen as substrate", "conditions": "substrate α-N-[3H]acetyltrypsinogen", "protocol": "(§1) Biological testing was carried out on the polyaspartyl argininal materials prepared as described above without further purification. […] Inhibition constants Ki for human and pig enterokinase were calculated using α-N-[^3 H] acetyl trypsinogen and Gly-(Asp)4 -Lys-2-Nap as substrates using linear regression analysis of l/v against [I] at three substrate concentrations. Inhibition of trypsin catalysed hydrolysis of both these substrates and Bz-Arg-OEt was expressed as the IC50, the concentration of inhibitor required to reduce trypsin activity by 50%. The results to activation peptides, four peptides of the invention, leupeptin and p-aminobenzamidine are set out in Tables 1 to 3 below."}, "[2]": {"biological_target": "Pig Enterokinase (Sus scrofa, UniProt P98074)", "test": "Inhibition of pig enterokinase, α-N-[3H]acetyl trypsinogen as substrate", "conditions": "substrate α-N-[3H]acetyltrypsinogen", "protocol": "as §1"}, "[3]": {"biological_target": "T1, Human Enterokinase", "test": "Inhibition of human enterokinase, Gly-(Asp)4-Lys-2-Nap as substrate", "conditions": "substrate Gly-(Asp)4-Lys-2-Nap; linear regression of 1/v against [I] at three substrate concentrations", "protocol": "as §1"}},
  "note": "At least one compound was matched to its structure with a doubt left. Residues, ends and D or L forms follow the SMILES beside them. *: point of attachment. Boc = CC(C)(C)OC(=O)*",
  "data": [
    {"smiles": "CC(C)(C)OC(=O)N[C@@H](CC(=O)O)C(=O)N[C@H](C=O)CCCNC(=N)N", "note": "[Boc(Asp)1 Argal, Boc--Asp--Argininal] (Boc-Asp-Arg-aldehyde)", "values": [
      {"measurement": "Ki", "setting": "[1]", "value": "50 ± 25", "unit": "µM"},
      {"measurement": "Ki", "setting": "[2]", "value": "55 ± 10", "unit": "µM"},
      {"measurement": "Ki", "setting": "[3]", "value": "80 ± 5", "unit": "µM"}
    ]}
  ]
}
